From PMC2679207, “GLS-1, a Novel P Granule Component, Modulates a Network of Conserved RNA Regulators to Influence Germ Cell Fate Decisions” (PLoS Genetics, 2009)
Results are given in words; binding and its absence hold for the method and conditions named. For some assays here: Binding seen in cells or lysates may run through a third protein. Some binding calls cover weakened binding; strength is not graded here. For some assays here: Where a sequence is shown, tags or fusion partners need not be part of it. Each block holds one binder with its values, some of them ahead of it.

How the values were obtained:
[1] = target: T1, MBP::GLD-3L with C-terminal His tag, from insect cells (C. elegans) (UniProt Q95ZK7); assay: co-IP; proteins co-expressed in insect cells; MBP::GLD-3L (wt or ax562) precipitated by an anti-GLD-3 N-terminal antibody; result does not depend on the temperature at which cells were grown
T1 sequence: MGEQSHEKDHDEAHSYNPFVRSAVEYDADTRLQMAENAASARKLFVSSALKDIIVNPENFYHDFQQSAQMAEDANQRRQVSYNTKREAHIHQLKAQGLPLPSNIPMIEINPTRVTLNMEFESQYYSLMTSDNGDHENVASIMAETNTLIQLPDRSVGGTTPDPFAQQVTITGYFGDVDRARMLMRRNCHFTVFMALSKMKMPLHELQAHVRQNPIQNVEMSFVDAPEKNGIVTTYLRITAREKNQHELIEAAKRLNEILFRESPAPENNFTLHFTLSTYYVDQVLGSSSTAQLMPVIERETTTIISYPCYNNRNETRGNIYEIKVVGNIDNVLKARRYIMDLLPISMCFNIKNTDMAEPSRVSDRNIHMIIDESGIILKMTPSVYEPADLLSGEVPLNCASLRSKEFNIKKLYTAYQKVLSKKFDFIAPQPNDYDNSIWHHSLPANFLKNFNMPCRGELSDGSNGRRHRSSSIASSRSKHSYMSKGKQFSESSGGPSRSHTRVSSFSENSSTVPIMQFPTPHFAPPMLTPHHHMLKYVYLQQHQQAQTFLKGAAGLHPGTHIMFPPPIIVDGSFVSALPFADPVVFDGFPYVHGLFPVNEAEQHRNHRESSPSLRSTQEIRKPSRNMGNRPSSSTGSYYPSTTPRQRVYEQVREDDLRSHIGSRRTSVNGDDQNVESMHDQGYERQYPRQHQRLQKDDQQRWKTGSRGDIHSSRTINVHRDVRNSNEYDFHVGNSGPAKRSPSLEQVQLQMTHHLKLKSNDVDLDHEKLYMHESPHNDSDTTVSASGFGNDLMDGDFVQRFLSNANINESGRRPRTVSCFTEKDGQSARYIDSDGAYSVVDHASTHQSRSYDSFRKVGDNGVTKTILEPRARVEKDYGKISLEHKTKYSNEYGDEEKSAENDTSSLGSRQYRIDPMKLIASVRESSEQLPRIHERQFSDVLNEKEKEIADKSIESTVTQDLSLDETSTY

[2] = target: T1, MBP::GLD-3L with C-terminal His tag, from insect cells (C. elegans); assay: pull-down; GLS-1 or GFP co-expressed with MBP-GLD-3L in insect cells by baculovirus co-infection; captured on amylose resin; immunoblotting; extracts RNAse A or mock treated
[3] = target: T2, GLD-3L with C-terminal His tag, MBP cleaved off (C. elegans) (UniProt Q95ZK7); assay: pull-down; competition assay; MBP-FBF-1 immobilized on amylose beads, loaded with GLD-3L, then challenged with increasing amounts of free GLS-1; washed; GLD-3L on beads quantified from Western blot bands; both purified
T2 sequence: T1 sequence

[4] = target: T3, GLD-3 (endogenous, worm extract) (C. elegans (endogenous in wild-type worms)) (UniProt Q95ZK7); assay: co-IP; wild-type whole worm extracts; anti-GLS-1 or anti-GLD-3L immune sera coupled to agarose beads, pre-immune serum as control; with or without RNase A; detected with the reciprocal antibodies
T3 sequence: T1 sequence

[5] = target: T4, GLS-1 (endogenous, worm extract) (C. elegans (endogenous in wild-type worms)) (UniProt Q8I4M5); assay: as above
T4 sequence: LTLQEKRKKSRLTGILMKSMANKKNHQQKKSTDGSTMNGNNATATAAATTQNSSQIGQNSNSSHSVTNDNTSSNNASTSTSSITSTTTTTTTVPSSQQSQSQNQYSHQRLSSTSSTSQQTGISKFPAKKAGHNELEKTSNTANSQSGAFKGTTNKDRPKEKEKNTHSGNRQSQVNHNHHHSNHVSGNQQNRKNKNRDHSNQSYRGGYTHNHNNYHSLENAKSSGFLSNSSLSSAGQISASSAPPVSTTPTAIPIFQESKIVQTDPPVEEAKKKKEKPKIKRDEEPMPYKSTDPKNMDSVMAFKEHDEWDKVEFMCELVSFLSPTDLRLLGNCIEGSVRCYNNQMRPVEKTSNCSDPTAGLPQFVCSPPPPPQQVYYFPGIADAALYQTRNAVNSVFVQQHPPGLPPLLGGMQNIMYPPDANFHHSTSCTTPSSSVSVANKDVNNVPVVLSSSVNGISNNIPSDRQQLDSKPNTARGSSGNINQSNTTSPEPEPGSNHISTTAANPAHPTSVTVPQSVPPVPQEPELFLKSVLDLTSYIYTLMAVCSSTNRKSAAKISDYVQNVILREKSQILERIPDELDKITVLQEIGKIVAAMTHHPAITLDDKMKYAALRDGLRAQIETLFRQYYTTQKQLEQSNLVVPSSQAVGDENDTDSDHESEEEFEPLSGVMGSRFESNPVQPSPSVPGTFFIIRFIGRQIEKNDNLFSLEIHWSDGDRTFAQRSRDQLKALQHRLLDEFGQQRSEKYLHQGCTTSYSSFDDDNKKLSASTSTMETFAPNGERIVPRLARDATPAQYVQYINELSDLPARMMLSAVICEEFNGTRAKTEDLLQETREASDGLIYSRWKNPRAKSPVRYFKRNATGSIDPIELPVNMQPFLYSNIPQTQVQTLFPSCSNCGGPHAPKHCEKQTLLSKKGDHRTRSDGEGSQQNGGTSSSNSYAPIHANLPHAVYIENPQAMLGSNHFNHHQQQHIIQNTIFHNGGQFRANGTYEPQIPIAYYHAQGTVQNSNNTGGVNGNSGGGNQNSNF

- binding [1]: binds
- binding [2]: binds
- binding [3]: binds
B1: GLS-1(FL) with C-terminal His tag, from insect cells (protein, UniProt Q8I4M5 26-1052)
chain: T4 sequence

- binding [4]: binds
B2: GLS-1 (endogenous, worm extract) (protein, UniProt Q8I4M5 26-1052)
chain: T4 sequence

- binding [5]: binds
B3: GLD-3 (endogenous, worm extract) (protein, UniProt Q95ZK7-1 1-969)
chain: T1 sequence
